Test results from PMC12309053.
No constants are given. Whether binding was seen depends on the method and setting. In cells and extracts the contact can be indirect. A result given as binding can be weak or reduced; the word gives no strength. Sequences can lack the tags named with a protein.

Target: T1, SRSF7-GFP fusion product (Serine/arginine-rich splicing factor 7, GFP-tagged at the C-terminus, from a BAC) (human) (UniProt Q16629)
T1 sequence: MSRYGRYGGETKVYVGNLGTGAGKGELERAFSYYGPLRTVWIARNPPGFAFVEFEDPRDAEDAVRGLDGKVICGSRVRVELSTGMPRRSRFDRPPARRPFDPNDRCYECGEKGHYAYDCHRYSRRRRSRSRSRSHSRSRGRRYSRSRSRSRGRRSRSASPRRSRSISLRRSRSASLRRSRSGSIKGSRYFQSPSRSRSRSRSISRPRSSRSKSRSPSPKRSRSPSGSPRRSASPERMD
Experiment: co-IP; GFP-Trap agarose beads on lysates of BAC-SRSF7-GFP MDA-MB-231 cells treated with 0.1% DMSO or 1 µM T-025 for 24 h; EBC buffer, benzonase, 300 mM NaCl, 2 h at 4 °C; six washes; Western blotting; MDA-MB-231-GFP cells as negative control

binding: binds
Substance: PRPF4B (human (endogenous in MDA-MB-231))
